Test results as given in patent US11007849.
For at least one entry, the source does not settle the construct or the ends of the probe. At least one result comes from cells or an extract, where the contact may be indirect. For some of these results: Tags and fusion partners may be left off the protein sequences shown.

Chains of the proteins cited; added tags and fusions are not shown.
UniProt A0A8C2QPD9, entry or part of it: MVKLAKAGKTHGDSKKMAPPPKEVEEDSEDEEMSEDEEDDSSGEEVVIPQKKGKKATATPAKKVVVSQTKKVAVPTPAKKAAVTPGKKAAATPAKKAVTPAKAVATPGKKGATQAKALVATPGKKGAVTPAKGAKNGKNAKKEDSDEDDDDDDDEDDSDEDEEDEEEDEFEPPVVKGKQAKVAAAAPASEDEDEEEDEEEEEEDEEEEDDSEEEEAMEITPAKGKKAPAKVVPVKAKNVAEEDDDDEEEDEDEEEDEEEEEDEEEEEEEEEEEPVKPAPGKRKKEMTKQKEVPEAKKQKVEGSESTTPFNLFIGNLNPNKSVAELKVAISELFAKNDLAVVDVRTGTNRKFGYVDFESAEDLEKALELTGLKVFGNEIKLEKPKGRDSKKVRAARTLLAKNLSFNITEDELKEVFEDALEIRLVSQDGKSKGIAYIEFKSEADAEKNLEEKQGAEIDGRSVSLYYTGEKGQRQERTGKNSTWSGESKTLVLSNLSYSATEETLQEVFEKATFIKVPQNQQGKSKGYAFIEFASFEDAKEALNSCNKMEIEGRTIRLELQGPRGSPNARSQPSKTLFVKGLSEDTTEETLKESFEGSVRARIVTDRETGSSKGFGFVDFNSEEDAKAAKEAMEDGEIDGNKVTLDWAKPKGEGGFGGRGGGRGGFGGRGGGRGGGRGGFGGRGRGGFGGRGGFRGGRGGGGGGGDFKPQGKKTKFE
UniProt A0A9J7G412, entry or part of it: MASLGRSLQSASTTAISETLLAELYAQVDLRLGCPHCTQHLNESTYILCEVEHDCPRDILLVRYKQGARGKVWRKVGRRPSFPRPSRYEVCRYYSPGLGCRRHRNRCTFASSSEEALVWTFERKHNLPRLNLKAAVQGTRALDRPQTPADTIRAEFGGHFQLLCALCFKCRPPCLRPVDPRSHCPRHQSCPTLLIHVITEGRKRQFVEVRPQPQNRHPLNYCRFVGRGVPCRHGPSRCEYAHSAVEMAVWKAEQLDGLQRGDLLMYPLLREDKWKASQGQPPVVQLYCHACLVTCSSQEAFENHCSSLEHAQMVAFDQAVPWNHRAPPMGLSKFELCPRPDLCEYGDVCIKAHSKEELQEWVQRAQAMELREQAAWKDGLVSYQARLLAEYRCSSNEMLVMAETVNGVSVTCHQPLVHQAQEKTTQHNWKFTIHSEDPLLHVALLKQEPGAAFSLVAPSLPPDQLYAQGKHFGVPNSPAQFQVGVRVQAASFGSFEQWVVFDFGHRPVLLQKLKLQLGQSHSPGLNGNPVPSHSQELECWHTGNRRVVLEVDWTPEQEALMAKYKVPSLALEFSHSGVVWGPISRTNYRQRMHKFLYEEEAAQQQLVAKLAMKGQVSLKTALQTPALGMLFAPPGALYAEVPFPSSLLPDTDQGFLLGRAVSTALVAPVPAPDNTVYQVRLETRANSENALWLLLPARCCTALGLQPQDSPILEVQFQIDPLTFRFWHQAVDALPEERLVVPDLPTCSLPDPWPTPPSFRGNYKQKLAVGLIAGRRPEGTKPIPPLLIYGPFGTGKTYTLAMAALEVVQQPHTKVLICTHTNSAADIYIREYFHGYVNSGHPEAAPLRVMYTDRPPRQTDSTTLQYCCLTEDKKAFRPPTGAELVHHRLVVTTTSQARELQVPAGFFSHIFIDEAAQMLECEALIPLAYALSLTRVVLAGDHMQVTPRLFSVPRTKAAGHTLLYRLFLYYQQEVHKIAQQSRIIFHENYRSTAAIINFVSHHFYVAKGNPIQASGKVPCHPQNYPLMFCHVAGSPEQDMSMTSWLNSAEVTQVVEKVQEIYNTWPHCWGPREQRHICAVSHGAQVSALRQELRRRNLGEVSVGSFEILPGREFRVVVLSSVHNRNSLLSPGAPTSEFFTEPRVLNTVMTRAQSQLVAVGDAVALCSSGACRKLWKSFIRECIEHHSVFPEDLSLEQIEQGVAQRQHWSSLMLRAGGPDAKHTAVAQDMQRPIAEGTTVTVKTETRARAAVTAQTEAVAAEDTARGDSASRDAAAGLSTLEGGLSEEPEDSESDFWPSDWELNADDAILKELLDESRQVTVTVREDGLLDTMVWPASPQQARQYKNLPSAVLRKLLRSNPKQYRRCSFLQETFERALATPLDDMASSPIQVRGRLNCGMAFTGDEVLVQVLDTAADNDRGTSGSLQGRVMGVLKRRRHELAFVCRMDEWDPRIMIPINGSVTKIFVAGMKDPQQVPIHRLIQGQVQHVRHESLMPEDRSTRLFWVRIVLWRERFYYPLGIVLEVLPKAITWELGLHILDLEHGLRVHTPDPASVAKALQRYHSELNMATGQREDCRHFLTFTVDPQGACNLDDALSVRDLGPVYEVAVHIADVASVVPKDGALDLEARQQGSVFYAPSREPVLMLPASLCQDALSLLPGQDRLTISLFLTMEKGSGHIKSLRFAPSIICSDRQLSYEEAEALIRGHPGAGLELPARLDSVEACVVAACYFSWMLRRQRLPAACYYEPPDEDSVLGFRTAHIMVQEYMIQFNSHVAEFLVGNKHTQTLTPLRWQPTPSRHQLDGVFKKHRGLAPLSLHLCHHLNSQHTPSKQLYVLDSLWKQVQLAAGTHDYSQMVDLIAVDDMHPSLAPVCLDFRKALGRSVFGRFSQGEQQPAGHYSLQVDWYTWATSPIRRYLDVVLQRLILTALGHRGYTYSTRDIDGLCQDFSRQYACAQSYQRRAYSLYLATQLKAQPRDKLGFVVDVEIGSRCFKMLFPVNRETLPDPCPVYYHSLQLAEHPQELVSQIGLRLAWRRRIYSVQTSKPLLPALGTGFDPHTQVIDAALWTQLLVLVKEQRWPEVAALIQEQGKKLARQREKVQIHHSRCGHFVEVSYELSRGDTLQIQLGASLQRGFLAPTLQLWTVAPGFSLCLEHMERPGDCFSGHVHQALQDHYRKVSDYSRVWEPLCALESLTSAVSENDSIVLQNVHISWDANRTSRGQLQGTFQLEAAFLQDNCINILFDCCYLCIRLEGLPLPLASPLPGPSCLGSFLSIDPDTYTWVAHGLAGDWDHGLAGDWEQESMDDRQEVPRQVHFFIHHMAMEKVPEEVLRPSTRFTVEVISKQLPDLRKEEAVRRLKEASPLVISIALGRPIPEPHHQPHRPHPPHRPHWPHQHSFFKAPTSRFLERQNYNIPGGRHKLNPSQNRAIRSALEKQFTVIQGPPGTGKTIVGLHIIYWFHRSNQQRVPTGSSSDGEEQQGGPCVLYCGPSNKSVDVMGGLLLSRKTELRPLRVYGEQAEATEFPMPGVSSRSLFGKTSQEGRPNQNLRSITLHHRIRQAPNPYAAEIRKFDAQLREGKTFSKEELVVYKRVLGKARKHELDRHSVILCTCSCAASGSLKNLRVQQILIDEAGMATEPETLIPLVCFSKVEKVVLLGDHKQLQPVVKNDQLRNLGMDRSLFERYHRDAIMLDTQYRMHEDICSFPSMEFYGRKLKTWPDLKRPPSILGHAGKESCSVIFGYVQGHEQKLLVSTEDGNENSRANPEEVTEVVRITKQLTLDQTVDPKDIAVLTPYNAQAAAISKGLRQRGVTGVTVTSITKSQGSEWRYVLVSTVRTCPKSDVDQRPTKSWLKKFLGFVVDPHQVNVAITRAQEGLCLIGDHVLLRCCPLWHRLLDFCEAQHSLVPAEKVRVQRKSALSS
UniProt G3H8V1, entry or part of it: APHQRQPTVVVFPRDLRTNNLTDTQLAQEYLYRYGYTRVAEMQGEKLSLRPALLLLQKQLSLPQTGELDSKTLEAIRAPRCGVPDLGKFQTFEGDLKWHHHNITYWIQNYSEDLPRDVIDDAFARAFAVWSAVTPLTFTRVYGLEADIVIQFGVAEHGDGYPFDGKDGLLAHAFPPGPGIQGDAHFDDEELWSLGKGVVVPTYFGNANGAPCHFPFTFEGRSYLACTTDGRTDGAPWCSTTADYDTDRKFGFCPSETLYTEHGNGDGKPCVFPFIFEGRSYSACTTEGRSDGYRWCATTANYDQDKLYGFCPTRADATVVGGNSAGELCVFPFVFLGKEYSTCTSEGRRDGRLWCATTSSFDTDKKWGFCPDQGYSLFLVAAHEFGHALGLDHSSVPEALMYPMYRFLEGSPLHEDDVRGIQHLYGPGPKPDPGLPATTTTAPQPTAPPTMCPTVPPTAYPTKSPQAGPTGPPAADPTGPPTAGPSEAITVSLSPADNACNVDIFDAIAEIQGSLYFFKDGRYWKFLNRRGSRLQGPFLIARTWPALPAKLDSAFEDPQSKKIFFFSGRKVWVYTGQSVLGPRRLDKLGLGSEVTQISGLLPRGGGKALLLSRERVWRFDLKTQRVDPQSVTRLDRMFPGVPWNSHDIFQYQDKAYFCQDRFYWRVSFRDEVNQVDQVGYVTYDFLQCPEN
UniProt A0A3L7ISI1, entry or part of it: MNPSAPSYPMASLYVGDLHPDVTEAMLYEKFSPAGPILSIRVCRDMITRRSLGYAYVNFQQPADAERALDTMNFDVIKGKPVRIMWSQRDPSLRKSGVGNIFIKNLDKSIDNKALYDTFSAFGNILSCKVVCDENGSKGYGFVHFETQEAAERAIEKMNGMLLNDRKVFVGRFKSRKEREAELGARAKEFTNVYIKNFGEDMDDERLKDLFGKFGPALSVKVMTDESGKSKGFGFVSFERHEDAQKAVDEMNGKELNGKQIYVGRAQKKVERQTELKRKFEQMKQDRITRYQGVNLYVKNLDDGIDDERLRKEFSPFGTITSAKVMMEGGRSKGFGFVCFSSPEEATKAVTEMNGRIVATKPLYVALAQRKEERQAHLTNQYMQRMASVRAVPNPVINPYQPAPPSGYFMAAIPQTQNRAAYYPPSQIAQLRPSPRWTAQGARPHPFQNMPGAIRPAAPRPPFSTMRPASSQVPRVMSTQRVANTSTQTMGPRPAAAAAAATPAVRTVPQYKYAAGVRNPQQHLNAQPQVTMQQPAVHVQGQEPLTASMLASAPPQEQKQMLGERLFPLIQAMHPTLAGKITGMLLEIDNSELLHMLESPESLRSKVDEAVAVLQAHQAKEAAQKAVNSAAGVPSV

Legend:
Assay in all cases: pull-down
Details in all cases: LC-MS/MS of CHO HCP mixture, spectral count >50; PBSMCT with salmon sperm DNA, room temperature; protein in an extract; label: 3' biotin with 18-mer internal spacer; single-stranded DNA
[1] = target: Nucleolin (Cricetulus griseus (CHO)) (UniProt A0A8C2QPD9)
[2] = target: T1, Splicing factor 3B subunit (Cricetulus griseus (CHO)) (UniProt G3HAF4)
T1 sequence (looked up, limits assumed): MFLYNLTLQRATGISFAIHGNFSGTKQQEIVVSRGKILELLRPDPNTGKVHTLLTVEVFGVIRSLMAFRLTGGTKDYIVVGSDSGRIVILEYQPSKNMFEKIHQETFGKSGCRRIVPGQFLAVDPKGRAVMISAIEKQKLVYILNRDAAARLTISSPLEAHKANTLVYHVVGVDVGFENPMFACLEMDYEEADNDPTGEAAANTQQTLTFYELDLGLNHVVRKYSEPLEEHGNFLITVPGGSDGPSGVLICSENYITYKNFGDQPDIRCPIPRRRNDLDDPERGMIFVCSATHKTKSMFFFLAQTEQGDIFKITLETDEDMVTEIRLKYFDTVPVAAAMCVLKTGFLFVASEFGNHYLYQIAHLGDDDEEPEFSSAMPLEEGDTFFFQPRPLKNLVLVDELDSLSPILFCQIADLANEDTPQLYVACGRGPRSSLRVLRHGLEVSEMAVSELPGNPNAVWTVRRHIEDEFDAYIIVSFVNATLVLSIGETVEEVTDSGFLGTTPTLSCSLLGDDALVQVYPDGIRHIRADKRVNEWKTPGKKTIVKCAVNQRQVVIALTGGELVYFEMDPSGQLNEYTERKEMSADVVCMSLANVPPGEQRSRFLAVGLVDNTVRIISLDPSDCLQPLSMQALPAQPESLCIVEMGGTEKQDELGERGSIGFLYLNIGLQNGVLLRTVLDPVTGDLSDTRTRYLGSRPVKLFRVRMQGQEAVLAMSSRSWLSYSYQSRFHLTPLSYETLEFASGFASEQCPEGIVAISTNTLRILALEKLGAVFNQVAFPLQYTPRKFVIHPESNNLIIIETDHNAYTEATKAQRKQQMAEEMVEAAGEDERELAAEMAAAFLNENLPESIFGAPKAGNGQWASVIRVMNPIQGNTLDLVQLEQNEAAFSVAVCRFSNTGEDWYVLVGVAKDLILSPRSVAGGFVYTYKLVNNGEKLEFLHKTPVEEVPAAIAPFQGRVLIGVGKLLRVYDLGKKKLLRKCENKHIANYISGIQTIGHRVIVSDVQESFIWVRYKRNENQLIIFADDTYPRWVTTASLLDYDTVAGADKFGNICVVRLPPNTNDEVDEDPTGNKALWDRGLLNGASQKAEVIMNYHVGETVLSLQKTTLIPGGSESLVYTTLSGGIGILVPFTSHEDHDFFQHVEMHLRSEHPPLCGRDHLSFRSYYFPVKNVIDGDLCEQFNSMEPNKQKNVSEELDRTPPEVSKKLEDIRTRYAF

[3] = target: T2, Matrix metalloprotease-19 (Cricetulus griseus (CHO)) (UniProt G3HRK9)
T2 sequence (looked up, limits assumed): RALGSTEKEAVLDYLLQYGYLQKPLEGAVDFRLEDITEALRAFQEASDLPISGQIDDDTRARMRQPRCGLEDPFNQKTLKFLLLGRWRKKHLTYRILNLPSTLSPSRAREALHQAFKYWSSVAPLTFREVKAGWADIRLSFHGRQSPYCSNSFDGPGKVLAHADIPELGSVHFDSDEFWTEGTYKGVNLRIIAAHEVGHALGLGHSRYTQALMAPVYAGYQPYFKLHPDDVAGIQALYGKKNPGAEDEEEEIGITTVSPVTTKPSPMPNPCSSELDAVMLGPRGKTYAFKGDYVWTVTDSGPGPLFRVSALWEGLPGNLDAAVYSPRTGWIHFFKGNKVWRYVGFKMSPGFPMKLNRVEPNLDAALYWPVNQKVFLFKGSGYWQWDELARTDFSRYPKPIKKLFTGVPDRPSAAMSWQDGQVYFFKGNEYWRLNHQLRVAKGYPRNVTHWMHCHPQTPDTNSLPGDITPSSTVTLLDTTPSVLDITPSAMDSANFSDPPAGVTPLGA

[4] = target: Basement membrane-specific heparin sulfate proteoglycan core protein (Cricetulus griseus (CHO)) (UniProt A0A9J7FD71)
[5] = target: Peroxisomal proliferator-activated receptor A-interacting complex 285 kDa protein (Cricetulus griseus (CHO)) (UniProt A0A9J7G412)
[6] = target: Matrix metalloprotease-9 (Cricetulus griseus (CHO)) (UniProt G3H8V1)
[7] = target: T3, Nuclease domain containing protein 1 (Cricetulus griseus (CHO)) (UniProt A0A9J7JA06)
T3 sequence (looked up, limits assumed): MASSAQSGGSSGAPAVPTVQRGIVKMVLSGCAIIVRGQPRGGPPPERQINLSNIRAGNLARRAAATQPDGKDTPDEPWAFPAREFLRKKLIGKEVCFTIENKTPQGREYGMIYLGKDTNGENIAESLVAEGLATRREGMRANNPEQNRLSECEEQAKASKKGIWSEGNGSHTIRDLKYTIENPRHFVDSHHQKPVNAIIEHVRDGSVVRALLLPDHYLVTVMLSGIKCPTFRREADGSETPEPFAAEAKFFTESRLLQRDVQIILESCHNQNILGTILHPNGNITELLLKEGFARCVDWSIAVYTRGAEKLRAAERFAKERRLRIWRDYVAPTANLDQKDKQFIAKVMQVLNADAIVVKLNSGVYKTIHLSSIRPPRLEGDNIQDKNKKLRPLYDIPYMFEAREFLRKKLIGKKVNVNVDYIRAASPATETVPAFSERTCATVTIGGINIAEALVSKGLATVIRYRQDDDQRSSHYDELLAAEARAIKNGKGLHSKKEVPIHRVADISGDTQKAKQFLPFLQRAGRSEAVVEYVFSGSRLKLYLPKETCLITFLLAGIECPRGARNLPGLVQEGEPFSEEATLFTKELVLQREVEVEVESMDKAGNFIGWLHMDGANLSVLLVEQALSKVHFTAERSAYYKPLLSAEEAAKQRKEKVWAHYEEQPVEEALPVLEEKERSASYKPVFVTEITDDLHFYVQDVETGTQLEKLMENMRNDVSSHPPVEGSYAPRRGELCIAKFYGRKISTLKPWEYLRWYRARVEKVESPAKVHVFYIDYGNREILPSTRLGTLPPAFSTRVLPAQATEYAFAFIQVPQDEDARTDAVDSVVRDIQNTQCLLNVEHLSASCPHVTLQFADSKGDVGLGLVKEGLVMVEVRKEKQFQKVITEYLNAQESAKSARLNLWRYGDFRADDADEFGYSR

[8] = target: Polyadenylate binding protein 1 (Cricetulus griseus (CHO)) (UniProt A0A3L7ISI1)
[9] = target: T4, High mobility group protein B1 (Cricetulus griseus (CHO)) (UniProt P07156)
T4 sequence (looked up, limits assumed): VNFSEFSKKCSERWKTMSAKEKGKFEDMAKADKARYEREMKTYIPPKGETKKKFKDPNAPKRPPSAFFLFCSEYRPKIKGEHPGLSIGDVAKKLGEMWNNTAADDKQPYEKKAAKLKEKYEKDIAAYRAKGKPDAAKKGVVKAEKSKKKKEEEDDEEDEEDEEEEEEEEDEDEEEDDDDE

[10] = tested on: Annexin (Cricetulus griseus (CHO))

Measured: binding result

GTTCATTCCGCCTTCTTTGGTCTAGGTCCGGACCAATTGTTATTTCGTTC [R5-150]
binds: [1] | [2] | [3] | [4] | [5] | [6] | [7] | [8]

CCGGACGATACAATCCATCTGTTACTGTGGATTCGTTAAGCTTAGTCGGT [R5-31]
binds: [9] | [10]
